These are yes or no findings as the source states them, for the method shown. For part of these data: In cells and extracts the contact can be indirect. Some results given as binding are weak or reduced against the parent protein; the word gives no strength. For part of these data: Sequences can lack the tags named with a protein.

This passage reports binding results from publication doi:10.1101/477745.

First the molecules themselves.
T1: Era-T25 (S. aureus) (UniProt Q2FGF6)
T1 sequence: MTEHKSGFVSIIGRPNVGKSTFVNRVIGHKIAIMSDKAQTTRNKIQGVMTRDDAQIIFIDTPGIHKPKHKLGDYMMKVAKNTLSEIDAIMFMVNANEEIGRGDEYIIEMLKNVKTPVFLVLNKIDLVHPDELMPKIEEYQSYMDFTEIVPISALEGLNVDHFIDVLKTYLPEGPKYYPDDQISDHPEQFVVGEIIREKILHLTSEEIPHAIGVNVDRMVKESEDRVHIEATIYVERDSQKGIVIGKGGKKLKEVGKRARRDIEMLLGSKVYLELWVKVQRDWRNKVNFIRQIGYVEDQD

T2: Era fused to SB (small bit of luciferase) (S. aureus) (UniProt Q2FGF6)
T2 sequence: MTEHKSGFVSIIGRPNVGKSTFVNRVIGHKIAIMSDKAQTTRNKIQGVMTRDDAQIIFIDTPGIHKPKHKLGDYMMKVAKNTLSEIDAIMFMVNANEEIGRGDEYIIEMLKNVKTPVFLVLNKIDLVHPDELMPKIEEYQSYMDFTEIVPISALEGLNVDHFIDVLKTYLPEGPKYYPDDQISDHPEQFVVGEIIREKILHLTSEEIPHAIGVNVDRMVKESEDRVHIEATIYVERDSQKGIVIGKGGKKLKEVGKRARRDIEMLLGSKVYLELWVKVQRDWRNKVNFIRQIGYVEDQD

B1: Era-T25 (protein, UniProt Q2FGF6 1-299)
chain: MTEHKSGFVSIIGRPNVGKSTFVNRVIGHKIAIMSDKAQTTRNKIQGVMTRDDAQIIFIDTPGIHKPKHKLGDYMMKVAKNTLSEIDAIMFMVNANEEIGRGDEYIIEMLKNVKTPVFLVLNKIDLVHPDELMPKIEEYQSYMDFTEIVPISALEGLNVDHFIDVLKTYLPEGPKYYPDDQISDHPEQFVVGEIIREKILHLTSEEIPHAIGVNVDRMVKESEDRVHIEATIYVERDSQKGIVIGKGGKKLKEVGKRARRDIEMLLGSKVYLELWVKVQRDWRNKVNFIRQIGYVEDQD
B2: Era fused to SB (small bit of luciferase) (protein, UniProt Q2FGF6 1-299)
chain: MTEHKSGFVSIIGRPNVGKSTFVNRVIGHKIAIMSDKAQTTRNKIQGVMTRDDAQIIFIDTPGIHKPKHKLGDYMMKVAKNTLSEIDAIMFMVNANEEIGRGDEYIIEMLKNVKTPVFLVLNKIDLVHPDELMPKIEEYQSYMDFTEIVPISALEGLNVDHFIDVLKTYLPEGPKYYPDDQISDHPEQFVVGEIIREKILHLTSEEIPHAIGVNVDRMVKESEDRVHIEATIYVERDSQKGIVIGKGGKKLKEVGKRARRDIEMLLGSKVYLELWVKVQRDWRNKVNFIRQIGYVEDQD
B3: CshA disordered CT-region (aa 383-506) fused to LB (domain or fragment, UniProt Q2FF45 383-506)
chain: KEKVENWMSKESESRLKRISTELLNEYNDVDLVAALLQELVEANDEVEVQLTFEKPLSRKGRNGKPSGSRNRNSKRGNPKFDSKSKRSKGYSSKKKSTKKFDRKEKSSGGSRPMKGRTFADHQK
B4: CshA core helicase domain (aa 1-382) fused to LB (domain or fragment, UniProt Q2FF45 1-382)
chain: MQNFKELGISDNTVQSLESMGFKEPTPIQKDSIPYALQGIDILGQAQTGTGKTGAFGIPLIEKVVGKQGVQSLILAPTRELAMQVAEQLREFSRGQGVQVVTVFGGMPIERQIKALKKGPQIVVGTPGRVIDHLNRRTLKTDGIHTLILDEADEMMNMGFIDDMRFIMDKIPAVQRQTMLFSATMPKAIQALVQQFMKSPKIIKTMNNEMSDPQIEEFYTIVKELEKFDTFTNFLDVHQPELAIVFGRTKRRVDELTSALISKGYKAEGLHGDITQAKRLEVLKKFKNDQINILVATDVAARGLDISGVSHVYNFDIPQDTESYTHRIGRTGRAGKEGIAVTFVNPIEMDYIRQIEDANGRKMSALRPPHRKEVLQAREDDI
B5: CshA RecA2 (aa 222-382) fused to LB (domain or fragment, UniProt Q2FF45 222-382)
chain: VKELEKFDTFTNFLDVHQPELAIVFGRTKRRVDELTSALISKGYKAEGLHGDITQAKRLEVLKKFKNDQINILVATDVAARGLDISGVSHVYNFDIPQDTESYTHRIGRTGRAGKEGIAVTFVNPIEMDYIRQIEDANGRKMSALRPPHRKEVLQAREDDI
B6: CshA RecA1 (aa 1-221) fused to LB (domain or fragment, UniProt Q2FF45 1-221)
chain: MQNFKELGISDNTVQSLESMGFKEPTPIQKDSIPYALQGIDILGQAQTGTGKTGAFGIPLIEKVVGKQGVQSLILAPTRELAMQVAEQLREFSRGQGVQVVTVFGGMPIERQIKALKKGPQIVVGTPGRVIDHLNRRTLKTDGIHTLILDEADEMMNMGFIDDMRFIMDKIPAVQRQTMLFSATMPKAIQALVQQFMKSPKIIKTMNNEMSDPQIEEFYTI

The first test addresses T1, Era-T25 (S. aureus). The test is described as follows: two-hybrid.
For B1, the binding entry is listed as “binds”.

For a further test, the target named is T2, Era fused to SB (small bit of luciferase) (S. aureus). Description: split reporter.
Consider B2, for which the binding result is reported as “binds”. With B3, the binding result is “no binding”. Take B4: the binding entry is “binds”. Take B5: the binding entry was “no binding”. Same read-out and setting: for B6 the value was “no binding”.
